From article PMC7026596
These are yes or no findings as the source states them, for the method shown. Some results given as binding are weak or reduced against the parent protein; the word gives no strength.

The chains behind the UniProt entries cited, without tags or fusion partners. Where a name states a change or a piece, a line headed by the entry shows the natural chain unless it says otherwise. A line that says so, or that is headed by a name, gives the form on record, which may keep a tag or linker. Residues count along the entry.
UniProt P83369: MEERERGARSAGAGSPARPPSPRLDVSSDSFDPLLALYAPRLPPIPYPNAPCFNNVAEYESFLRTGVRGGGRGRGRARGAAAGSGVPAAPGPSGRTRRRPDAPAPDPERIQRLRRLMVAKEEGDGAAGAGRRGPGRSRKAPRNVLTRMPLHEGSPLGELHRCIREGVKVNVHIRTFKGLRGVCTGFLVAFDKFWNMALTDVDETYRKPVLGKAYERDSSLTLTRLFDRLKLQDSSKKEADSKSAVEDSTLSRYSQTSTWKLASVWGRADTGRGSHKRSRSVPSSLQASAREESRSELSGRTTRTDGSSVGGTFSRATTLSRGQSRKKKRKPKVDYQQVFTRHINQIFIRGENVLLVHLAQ
His-Lsm11(Δ211–332) (P83369, form named): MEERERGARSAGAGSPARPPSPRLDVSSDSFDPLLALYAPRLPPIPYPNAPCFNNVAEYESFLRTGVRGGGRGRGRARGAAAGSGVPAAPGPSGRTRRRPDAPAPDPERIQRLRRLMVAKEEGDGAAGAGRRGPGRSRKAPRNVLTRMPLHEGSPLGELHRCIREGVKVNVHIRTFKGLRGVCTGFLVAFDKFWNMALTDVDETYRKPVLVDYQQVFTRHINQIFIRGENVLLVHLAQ
UniProt Q969L4: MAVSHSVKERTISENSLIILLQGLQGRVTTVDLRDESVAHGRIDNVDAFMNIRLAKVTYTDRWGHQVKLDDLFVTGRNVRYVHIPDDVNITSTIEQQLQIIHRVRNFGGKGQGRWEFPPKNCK
GST-tagged Δ61 FLASH (amino acids 62–139) (Q9UKL3, residues 62-139): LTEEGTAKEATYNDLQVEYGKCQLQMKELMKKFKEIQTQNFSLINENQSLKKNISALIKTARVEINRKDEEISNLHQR
FLASH (51–137) C54S/C83A double mutant (Q9UKL3, form named): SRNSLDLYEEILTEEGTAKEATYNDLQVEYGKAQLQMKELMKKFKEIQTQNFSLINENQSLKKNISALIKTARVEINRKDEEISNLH

Tests used:
His-Lsm11(Δ211–332) [1] = target: His-Lsm11(Δ211–332) (UniProt P83369); assay: co-purification of co-expressed proteins (nickel affinity, heparin column); His-Lsm11 and MBP-Lsm10 co-expressed in Hi5 insect cells from one baculovirus vector; lysate (20 mM Tris pH 7.5, 500 mM NaCl) on nickel beads, then HiTrap Heparin with a salt gradient
His-Lsm11, full length = His-Lsm11, full length (UniProt P83369); assay: as above
His-Lsm11(Δ211–332) [2] = target: His-Lsm11(Δ211–332) (UniProt P83369); assay: SEC; core assembled at 20 μM of each component in 600 mM KCl, 15 mM HEPES pH 7.9, 15% glycerol, 20 mM EDTA, 32°C; pre-bound to FLASH (40 μM); Superose 6 Increase 3.2/300 in 75 mM KCl, 15 mM HEPES–KOH pH 7.9, 10% glycerol, 20 mM EDTA; fractions read by silver staining or Western blotting; both purified
His-Lsm11(Δ211–332) [3] = target: His-Lsm11(Δ211–332) (UniProt P83369); assay: pull-down; recombinant core U7 snRNP pre-bound to FLASH, bound with SLBP to biotinylated mH2a/2m-3′B histone pre-mRNA and held on streptavidin beads in processing buffer (75 mM KCl, 15 mM HEPES–KOH pH 7.9, 15% glycerol, 20 mM EDTA), 4°C; recombinant proteins read by silver staining or Western blotting; both purified
His-Lsm11(Δ211–332) [4] = target: His-Lsm11(Δ211–332) (UniProt P83369); assay: SEC; equimolar sub-complexes, U7 snRNA (nucleotides 20–63) and two molar equivalents of FLASH mixed in 20 mM HEPES pH 7.5, 250 mM NaCl, 5 mM MgCl2, 5 mM DTT; MBP removed with TEV protease; Superdex 200 in 20 mM HEPES pH 7.5, 400 mM NaCl, 1.5 mM MgCl2, 5 mM DTT; peak analysed by SDS-PAGE and electron microscopy; both purified
SmG-His = SmG-His (UniProt P62308); assay: co-purification of co-expressed proteins (nickel affinity, heparin column); proteins co-expressed in E. coli BL21 Star (DE3); only one carries a 6xHis tag; lysate (20 mM Tris pH 7.5, 500 mM NaCl) on nickel beads, then heparin with a salt gradient

MBP-Lsm10 (from UniProt Q969L4 1-123)
binding (His-Lsm11(Δ211–332) [1]): binds
binding (His-Lsm11, full length): binds

GST-tagged Δ61 FLASH (amino acids 62–139) (from UniProt Q9UKL3 62-139) (domain or fragment)
binding (His-Lsm11(Δ211–332) [2]): binds
binding (His-Lsm11(Δ211–332) [3]): binds

FLASH (51–137) C54S/C83A double mutant (from UniProt Q9UKL3 51-137) (domain or fragment)
binding (His-Lsm11(Δ211–332) [4]): binds

SmE, untagged (from UniProt P62304 1-92)
binding (SmG-His): binds
